The assay deals with T1, Gtr1-myc (Saccharomyces cerevisiae) (UniProt Q00582).
T1 sequence (looked up): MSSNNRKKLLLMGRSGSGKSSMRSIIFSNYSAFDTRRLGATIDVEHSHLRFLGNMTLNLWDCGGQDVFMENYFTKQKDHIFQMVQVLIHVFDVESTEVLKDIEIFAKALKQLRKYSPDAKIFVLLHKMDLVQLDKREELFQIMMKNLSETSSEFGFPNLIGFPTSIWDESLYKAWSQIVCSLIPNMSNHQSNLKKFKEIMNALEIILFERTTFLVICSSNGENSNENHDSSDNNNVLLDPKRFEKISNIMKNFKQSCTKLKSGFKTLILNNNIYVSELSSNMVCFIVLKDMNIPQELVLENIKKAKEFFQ
The experiment in a line: co-immunoprecipitation, Western blot. On the technique in general: A western blot detects proteins with antibodies after separation by electrophoresis.

These are yes or no findings as the source states them, for the method shown. In cells and extracts the contact can be indirect. Some binding calls cover weakened binding; strength is not graded here. Where a sequence is shown, tags or fusion partners need not be part of it.

B1: GFP-Ait1 (other)
chain: MVRLNHAASYFMPIFCSTRPHIVILSALFSISLFSLFYASSELLLHQYDDPLMFKPNSQDYFRTFLLGLFSPFLYYFLKTFLFNINQRFLILNLIVDFPINDVFMLLILIGLAYPQVQDHEGGTIKHKECSWHIIPRQAYIFGISWALGEFTICIIGNLFNYQEIADPNINSGFTHQESANTYCNNNDMSHNDDCGCSTEYRPNVVDRSDITLSKCIEVRNDSSSISNNVYSSEYHPIKPLRSSSSTYGSIRQQPHENKKQLHVPDNSQDDTIIMMNPIDNSLKLTTLDTGDLSFPIDEEQPILKKSFGYTWAVPNENTQNTTKSFTPIKRFIAFSTAYQLVTGLLLMILVVGSNIMLTIGESLILSMYFVYVRGHEGLFTPVVNYFGSRTISNFILCVIIPFISLNFLINTSIYLRRELDDWFNNSQGEFEDDDENTISKRVATNQEYQHPLSANYISMDSPDVINSSPGHFGMNSGQLLGNTTLYYGSLNGDDDDMTNDSALLRFCKKLVKNWRALARNDSFVLGVMVSWSLLVFVTGILSTVYI
notes: Expressed in S. cerevisiae (W303) and immunopurified from DSP-crosslinked, digitonin-treated lysate; also called Ait1-GFP; GFP-tagged Ydl180w; not shown: GFP tag
Regarding B1, the binding result is “binds”.
